From publication PMC13226233 come the findings set out here.

Amino acid sequences for entries named in this document (tags omitted).
UniProt P54198: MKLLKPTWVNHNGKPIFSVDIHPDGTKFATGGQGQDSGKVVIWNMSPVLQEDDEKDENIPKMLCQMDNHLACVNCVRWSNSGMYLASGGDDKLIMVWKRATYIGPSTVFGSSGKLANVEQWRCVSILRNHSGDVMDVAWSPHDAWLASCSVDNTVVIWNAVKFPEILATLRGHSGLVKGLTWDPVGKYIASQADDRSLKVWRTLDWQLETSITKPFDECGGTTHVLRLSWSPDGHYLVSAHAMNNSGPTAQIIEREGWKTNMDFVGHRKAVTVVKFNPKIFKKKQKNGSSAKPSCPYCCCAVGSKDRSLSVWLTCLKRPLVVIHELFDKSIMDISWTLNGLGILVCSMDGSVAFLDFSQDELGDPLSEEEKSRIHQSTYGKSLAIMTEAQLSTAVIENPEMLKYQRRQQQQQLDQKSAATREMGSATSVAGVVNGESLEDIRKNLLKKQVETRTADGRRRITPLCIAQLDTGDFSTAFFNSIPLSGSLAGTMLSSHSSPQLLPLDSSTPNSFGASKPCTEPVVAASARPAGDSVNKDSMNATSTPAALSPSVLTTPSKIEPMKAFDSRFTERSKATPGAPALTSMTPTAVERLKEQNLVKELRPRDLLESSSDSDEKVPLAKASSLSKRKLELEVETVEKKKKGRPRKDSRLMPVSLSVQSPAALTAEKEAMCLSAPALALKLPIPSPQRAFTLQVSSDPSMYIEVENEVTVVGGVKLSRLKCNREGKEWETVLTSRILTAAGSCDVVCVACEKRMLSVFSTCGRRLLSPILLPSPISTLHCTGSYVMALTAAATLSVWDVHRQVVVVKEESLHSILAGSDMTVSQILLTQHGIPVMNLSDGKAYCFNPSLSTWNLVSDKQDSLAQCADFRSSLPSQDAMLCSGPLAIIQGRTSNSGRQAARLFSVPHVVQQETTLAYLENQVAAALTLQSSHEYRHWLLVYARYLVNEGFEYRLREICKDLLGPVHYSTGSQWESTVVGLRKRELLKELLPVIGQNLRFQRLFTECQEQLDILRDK
UniProt Q15652: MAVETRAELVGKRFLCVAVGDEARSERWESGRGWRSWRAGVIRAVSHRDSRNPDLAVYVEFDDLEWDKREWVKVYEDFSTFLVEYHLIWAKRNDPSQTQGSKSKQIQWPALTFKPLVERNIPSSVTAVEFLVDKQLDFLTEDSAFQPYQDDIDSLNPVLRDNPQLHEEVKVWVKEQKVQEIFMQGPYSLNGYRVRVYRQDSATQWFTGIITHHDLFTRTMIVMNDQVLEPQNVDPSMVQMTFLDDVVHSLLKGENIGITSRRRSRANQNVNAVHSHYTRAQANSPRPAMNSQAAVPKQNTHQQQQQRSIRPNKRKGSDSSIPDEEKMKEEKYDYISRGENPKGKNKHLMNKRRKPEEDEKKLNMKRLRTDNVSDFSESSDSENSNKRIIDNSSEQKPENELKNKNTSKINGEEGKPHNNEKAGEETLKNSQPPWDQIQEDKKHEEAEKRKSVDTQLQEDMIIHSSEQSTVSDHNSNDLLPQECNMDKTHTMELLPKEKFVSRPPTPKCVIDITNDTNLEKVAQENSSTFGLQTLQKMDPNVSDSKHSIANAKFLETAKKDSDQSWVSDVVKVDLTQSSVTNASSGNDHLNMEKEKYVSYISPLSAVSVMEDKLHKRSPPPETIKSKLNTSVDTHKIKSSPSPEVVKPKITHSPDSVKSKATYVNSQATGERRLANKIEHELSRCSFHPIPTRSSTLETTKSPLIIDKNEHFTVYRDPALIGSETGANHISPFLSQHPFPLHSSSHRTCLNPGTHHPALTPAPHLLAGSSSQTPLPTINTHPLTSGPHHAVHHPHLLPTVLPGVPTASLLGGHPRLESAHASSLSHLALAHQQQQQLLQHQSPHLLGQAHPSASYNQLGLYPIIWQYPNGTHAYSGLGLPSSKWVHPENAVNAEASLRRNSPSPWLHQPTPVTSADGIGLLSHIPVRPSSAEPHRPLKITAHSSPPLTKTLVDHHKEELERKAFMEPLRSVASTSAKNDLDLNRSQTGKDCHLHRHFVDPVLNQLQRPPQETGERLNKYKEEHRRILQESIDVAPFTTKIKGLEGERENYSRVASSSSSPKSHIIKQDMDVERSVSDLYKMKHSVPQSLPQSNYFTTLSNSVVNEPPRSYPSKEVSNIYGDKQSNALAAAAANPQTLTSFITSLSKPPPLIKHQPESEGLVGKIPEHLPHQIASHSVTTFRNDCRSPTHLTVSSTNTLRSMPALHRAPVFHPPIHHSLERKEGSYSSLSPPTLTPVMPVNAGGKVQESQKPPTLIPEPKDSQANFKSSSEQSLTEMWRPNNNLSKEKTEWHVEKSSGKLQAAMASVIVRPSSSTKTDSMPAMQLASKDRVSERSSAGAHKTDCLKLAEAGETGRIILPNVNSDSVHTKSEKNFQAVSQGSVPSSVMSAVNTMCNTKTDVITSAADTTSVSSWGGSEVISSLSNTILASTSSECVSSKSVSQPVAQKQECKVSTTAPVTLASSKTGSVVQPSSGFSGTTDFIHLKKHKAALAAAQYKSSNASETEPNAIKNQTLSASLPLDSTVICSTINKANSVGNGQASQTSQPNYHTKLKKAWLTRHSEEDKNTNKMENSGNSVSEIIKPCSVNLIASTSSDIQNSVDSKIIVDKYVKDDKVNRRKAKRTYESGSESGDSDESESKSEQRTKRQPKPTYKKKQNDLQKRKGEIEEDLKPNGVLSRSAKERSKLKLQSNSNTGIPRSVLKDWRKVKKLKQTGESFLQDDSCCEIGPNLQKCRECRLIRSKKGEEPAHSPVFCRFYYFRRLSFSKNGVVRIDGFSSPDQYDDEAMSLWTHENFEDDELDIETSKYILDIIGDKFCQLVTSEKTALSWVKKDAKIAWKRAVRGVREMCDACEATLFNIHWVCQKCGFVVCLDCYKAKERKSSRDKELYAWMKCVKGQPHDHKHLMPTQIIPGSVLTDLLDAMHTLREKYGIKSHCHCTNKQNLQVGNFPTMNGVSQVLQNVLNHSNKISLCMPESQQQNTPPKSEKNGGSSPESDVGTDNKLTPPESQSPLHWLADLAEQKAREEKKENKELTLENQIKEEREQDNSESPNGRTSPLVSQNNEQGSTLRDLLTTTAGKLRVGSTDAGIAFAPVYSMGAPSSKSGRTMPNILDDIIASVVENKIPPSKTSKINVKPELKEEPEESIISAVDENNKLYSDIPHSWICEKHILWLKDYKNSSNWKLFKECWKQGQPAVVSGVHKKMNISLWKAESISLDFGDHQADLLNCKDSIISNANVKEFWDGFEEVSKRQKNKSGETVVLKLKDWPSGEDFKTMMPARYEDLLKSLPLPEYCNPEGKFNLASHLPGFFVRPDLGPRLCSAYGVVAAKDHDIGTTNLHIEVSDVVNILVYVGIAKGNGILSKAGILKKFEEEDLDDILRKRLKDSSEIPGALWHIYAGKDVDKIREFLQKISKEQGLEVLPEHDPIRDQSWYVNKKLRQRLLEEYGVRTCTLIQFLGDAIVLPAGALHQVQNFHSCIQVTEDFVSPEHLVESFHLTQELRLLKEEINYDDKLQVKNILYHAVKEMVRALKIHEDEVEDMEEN
UniProt Q6ZU65: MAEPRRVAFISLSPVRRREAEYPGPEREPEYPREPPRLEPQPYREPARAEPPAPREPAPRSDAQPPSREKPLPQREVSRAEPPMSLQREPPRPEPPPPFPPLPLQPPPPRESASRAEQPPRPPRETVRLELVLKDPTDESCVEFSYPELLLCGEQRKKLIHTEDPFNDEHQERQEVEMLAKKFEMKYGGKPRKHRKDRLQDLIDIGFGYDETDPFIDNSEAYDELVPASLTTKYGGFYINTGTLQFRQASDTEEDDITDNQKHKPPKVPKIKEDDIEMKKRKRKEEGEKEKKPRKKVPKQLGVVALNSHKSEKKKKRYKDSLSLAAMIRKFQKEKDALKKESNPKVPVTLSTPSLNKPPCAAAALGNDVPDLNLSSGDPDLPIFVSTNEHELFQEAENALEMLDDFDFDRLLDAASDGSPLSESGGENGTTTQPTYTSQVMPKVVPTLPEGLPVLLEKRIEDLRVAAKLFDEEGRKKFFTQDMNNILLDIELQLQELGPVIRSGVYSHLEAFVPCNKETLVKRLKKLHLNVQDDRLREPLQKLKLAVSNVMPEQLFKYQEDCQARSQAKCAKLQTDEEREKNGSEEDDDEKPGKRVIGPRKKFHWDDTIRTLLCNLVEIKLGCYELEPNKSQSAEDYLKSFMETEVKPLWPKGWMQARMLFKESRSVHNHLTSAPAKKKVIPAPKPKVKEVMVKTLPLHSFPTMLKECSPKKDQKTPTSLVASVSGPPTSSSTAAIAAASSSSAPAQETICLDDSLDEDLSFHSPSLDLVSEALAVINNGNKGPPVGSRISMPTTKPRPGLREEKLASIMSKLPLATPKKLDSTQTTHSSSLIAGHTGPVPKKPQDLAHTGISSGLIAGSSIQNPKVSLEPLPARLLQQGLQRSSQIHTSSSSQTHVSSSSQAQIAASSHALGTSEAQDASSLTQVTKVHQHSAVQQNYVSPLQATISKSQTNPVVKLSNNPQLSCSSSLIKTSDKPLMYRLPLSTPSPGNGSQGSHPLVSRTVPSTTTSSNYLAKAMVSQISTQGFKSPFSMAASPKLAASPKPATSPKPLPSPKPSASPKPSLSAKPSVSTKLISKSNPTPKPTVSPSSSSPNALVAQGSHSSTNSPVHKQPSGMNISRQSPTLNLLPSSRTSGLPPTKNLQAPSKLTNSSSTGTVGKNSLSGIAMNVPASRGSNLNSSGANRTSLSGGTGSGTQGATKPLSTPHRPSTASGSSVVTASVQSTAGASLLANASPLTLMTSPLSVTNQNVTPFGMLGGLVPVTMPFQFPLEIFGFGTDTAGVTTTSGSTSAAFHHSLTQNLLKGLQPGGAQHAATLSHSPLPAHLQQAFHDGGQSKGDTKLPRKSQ
UniProt O60264: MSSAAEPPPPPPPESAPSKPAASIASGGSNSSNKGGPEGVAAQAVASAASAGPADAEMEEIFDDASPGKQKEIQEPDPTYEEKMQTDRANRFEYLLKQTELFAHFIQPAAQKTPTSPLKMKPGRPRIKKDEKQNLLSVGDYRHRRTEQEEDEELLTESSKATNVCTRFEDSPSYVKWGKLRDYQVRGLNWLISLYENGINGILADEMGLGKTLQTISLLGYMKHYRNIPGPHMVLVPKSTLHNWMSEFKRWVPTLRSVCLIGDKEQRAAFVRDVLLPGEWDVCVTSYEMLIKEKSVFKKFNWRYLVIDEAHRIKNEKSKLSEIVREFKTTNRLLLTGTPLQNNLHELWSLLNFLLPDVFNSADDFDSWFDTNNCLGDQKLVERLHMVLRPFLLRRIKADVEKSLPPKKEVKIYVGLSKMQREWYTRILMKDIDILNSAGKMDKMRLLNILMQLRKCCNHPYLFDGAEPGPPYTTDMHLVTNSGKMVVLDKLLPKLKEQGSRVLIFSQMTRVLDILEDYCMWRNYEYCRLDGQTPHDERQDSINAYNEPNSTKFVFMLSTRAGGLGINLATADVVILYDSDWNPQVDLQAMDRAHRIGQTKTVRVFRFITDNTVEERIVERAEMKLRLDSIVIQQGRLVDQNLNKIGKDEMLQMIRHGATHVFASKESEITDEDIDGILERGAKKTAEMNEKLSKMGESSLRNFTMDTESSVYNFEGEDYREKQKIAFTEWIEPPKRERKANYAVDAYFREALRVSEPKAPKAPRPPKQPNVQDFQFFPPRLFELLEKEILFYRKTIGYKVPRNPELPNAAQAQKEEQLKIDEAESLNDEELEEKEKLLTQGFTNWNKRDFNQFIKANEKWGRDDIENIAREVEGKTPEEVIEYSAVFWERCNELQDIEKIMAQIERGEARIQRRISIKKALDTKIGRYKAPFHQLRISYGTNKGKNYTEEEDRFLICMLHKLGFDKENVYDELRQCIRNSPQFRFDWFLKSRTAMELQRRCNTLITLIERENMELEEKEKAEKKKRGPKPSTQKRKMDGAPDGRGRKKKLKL

No constants are given. Whether binding was seen depends on the method and setting. Binding seen in cells or lysates may run through a third protein. A yes stands for co-enrichment or nearness to the bait. Other partners may have been found.

The target of this assay is Histone cell cycle regulator A (HIRA) (human (endogenous in K562)) (UniProt P54198). Briefly: affinity purification with mass spectrometry; endogenous HIRA immunoprecipitated from K562 whole cell lysate (NETN buffer, protein G agarose), trypsin digest, LC-MS/MS (Orbitrap Eclipse); proteins also found in the IgG control were removed.

Turning to “H3K9me3 demethylase JMJD1C (from UniProt Q15652 1-2540)”, the binding result is “binds”. The same measure for UBN2 (from UniProt Q6ZU65 1-1347): “binds”. The same measure for “chromatin remodeler SMARCA5 (from UniProt O60264 1-1052)”: “binds”.
